From PubChem BioAssay AID1671190 (National Center for Advancing Translational Sciences (NCATS), 2021)
The whole screen tested about 580,000 compounds, of which about 6,100 (1.1%) were called active. Inconclusive means that the source gave no clear call. Such entries were picked first, then a sample of the others. The call rests on the fitted dose curve; in most records, active means well fitted inhibition curve with a large enough effect; inconclusive means small, poorly fitted or top-dose-only effect, or another doubt; inactive means no such curve, though single readings can be large or run the other way. A potency beside an inconclusive call is a rough fit, not a confirmed value.

Amino acid sequences for entries named in this document (tags omitted).
UniProt P18054, whole entry: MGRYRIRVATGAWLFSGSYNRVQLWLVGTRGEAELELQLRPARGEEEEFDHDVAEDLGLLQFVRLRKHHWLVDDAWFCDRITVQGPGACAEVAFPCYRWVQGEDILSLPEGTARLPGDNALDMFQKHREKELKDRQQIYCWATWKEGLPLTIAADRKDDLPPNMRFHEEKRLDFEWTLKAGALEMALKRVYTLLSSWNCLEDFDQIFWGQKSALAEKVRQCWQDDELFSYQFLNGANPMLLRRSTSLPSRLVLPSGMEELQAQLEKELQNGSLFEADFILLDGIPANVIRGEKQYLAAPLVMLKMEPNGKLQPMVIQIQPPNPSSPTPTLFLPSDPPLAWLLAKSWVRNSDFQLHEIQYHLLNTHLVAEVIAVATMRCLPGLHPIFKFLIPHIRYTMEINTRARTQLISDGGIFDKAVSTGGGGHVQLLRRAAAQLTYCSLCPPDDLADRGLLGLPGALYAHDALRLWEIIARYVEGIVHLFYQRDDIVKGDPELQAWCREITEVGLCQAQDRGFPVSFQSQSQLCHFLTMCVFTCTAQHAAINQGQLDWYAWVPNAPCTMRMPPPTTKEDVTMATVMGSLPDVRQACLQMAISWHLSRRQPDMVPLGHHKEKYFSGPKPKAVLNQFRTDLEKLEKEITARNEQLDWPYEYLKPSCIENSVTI

target: Polyunsaturated fatty acid lipoxygenase ALOX12 (Homo sapiens) (UniProt P18054); experiment: Primary qHTS assay for inhibitors of human arachidonate 12S-lipoxygenase (ALOX12): Round 2; settings: purified 12hLO, xylenol orange hydroperoxide absorbance; activity change, negative = inhibition: at 108 µM (top of the series) unless noted
In short: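 Purified human 12hLO at 150 nM in 25 mM Hepes, 0.01% Triton X-100, pH 7.0, preincubated 15 min at room temperature with compound. Reaction started with 40 uM arachidonic acid, 30 min at room temperature. Hydroperoxide measured by Fe-xylenol orange, 573/405 nm absorbance ratio.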
On the % scale 0 is the no-effect control and ±100 the full control effect; potency means the concentration at half of the fitted maximal effect.

SMILES	Potency	activity change, negative = inhibition
O=C1CN(/N=C/c2ccc(-c3ccc([N+](=O)[O-])cc3)o2)C(=O)N1	inconclusive: 50.1 µM [inhibitor, partial curve, poor fit]	
CC(Cc1ccccc1)NC(=O)/C=C/c1ccc([N+](=O)[O-])cc1 (stereo not drawn)		inactive: 7.51%
COc1ccc(CNc2ncncc2-c2cccnc2)c(OC)c1	inconclusive: 50.1 µM [inhibitor, partial curve, poor fit]	
CNc1oc(-c2ccc(C)cc2)nc1P(=O)(c1ccccc1)c1ccccc1	inconclusive: 31.6 µM [inhibitor, partial curve, poor fit]	
Cc1cc2nc3n(c(=O)c2n1CC(=O)Nc1ccc(Br)cc1F)CCCCC3	inconclusive: 79.4 µM [inhibitor, partial curve, poor fit]	
CCN(C(=O)c1cccc(C(N)=O)c1)C1CC1		inactive: 22.9%
CC(=O)c1ccc(NC(=O)CSc2nc3ccccc3c(=O)n2CC2CCCO2)cc1 (stereo not drawn)	inconclusive: 44.7 µM [inhibitor, single point]	
Cc1ccc(C(=O)CC(=O)COc2ccc(Cl)cc2)cc1	inconclusive: 35.5 µM [inhibitor, partial curve]	
CC(=Nc1ccc(C)cc1)c1sc2ccccc2c1O		inactive: 1.61%
O=C(O)c1ccc(NC(=S)NC(=O)C(c2ccccc2)c2ccccc2)cc1	inconclusive: 15.8 µM [inhibitor, full curve, poor fit]	
COc1cccc2cc(-c3cc(=O)oc4cc(OCC(=O)C(C)(C)C)ccc34)c(=O)oc12		inactive: -21.8%
Cc1ccc(-c2nc(CC(=O)NCc3ccccc3F)cs2)o1	active: 11.2 µM	
O=c1[nH]c2ccccc2c(O)c1-[n+]1ccccc1	inconclusive: 44.7 µM [inhibitor, partial curve, poor fit]	
COc1ccc(NC(=O)c2ccc(F)cc2)cc1S(=O)(=O)Nc1cc(C)ccc1Br	inconclusive: 44.7 µM [inhibitor, partial curve, poor fit]	
COc1ccc(C(=O)Nc2ccc(-c3nc4ccccc4o3)cc2)cc1OC	inconclusive: 100 µM [inhibitor, single point]	
CC(C)Cn1c(-c2ccc(F)cc2)n[nH]c1=S	inconclusive: 44.7 µM [inhibitor, partial curve, poor fit]	
C=CCNC(=S)N/N=C(\C)c1cc(OC)c(OC)c(OC)c1	inconclusive: 50.1 µM [inhibitor, partial curve, poor fit]	
COC(=O)CNC(=O)c1ccc(CN)cc1	inconclusive: 25.1 µM [inhibitor, partial curve, poor fit]	
O=c1cc(CO)oc(C(Nc2ccccn2)c2ccc(C(F)(F)F)cc2)c1O (stereo not drawn)	inconclusive: 39.8 µM [inhibitor, partial curve, poor fit]	
CCOc1cc(NC(=O)c2ccccn2)c(OCC)cc1NC(=O)c1ccc(C)cc1		inactive: 6.38%
Cc1ccc(NC(=O)CCNS(=O)(=O)c2ccc3[nH]c(=O)oc3c2)cc1N(C)C		inconclusive: -32% [inhibitor]
CCN(CC)CCn1c(NCc2ccc(OC)cc2)nc2ccccc21	inconclusive: 35.5 µM [inhibitor, single point]	
O=[N+]([O-])c1ccccc1S(=O)(=O)N1CCCCC1		inactive: 1.87%

SMILES	Potency	activity change, negative = inhibition
COc1ccc(C(=O)C[n+]2ccc3c(c2)nc(-c2ccccc2)n3C)cc1		inactive: -16.6%
Cn1c2ccc(CC(=O)O)cc2c2cc(CC(=O)O)ccc21		inactive: -15.5%
Cc1[nH]nc(N2CCCCCC2)c1[N+](=O)[O-]		inactive: 0%
O=C(Nc1ccc(S(=O)(=O)Nc2ncccn2)cc1)c1ccc(N2CCCC2=O)cc1		inactive: 1.57%
O=C(COC(=O)c1ccc2c(c1)NC(=O)CS2)Nc1cccc(Cl)c1	inconclusive: 44.7 µM [inhibitor, partial curve, poor fit]	
O=C(Cc1ccccc1)NC(=S)Nc1ccc2oc(-c3ccccc3)nc2c1	inconclusive: 50.1 µM [inhibitor, partial curve, poor fit]	
C#CCOCCOCCOCCNc1nc(N2CCOCC2)nc(N2CCN(C(=O)CCCCCCCCCCNC(=O)[C@H](CO)n3cc(CCCCCN)nn3)CC2)n1	inconclusive: 35.5 µM [inhibitor, single point]	
c1coc(-c2nnc(-c3ccc4c(c3)OCO4)o2)c1	inconclusive: 15.8 µM [inhibitor, full curve]	
COc1cc(OC)c(C2=CCN(S(=O)(=O)N3CCCCCC3)CC2)c(OC)c1		inactive: -1.12%
CC(=O)c1cc(CN2CCC(c3nnc4n3CCCCC4)CC2)n(C)c1	inconclusive: 2.82 µM [inhibitor, full curve, poor fit]	
COc1cc2sc3ccc(C#Cc4ccc(N)cc4)cc3c(=O)c2cc1OC		inactive: -12.1%
CC(C)NC(=O)c1csc(COCCO)n1	inconclusive: 141 µM [inhibitor, partial curve, poor fit]	
NC(=O)N/N=C/c1ccc(-c2ccc([N+](=O)[O-])cc2)o1		inactive: 0.461%
c1ccc(-c2cc3c(Nc4ccc5c(c4)OCCO5)nccc3[nH]2)cc1	inconclusive: 112 µM [inhibitor, partial curve, poor fit]	
COc1cc(NS(=O)(=O)c2cccc3nsnc23)c(C(=O)O)cc1OC	inconclusive: 1.78 µM [inhibitor, full curve]	
CC(C)Oc1ccc(OCCn2c(S(=O)(=O)O)nc3c(N)ncnc32)cc1		inactive: -13.3%
CC(C)N1C(=O)c2ccc(C(=O)O)cc2C1=O	inconclusive: 5.01 µM [inhibitor, partial curve, poor fit]	
CCc1ccc(C(=O)CN2CCSC2=N)cc1	inconclusive: 50.1 µM [inhibitor, partial curve, poor fit]	
COC(=O)c1ccc(Sc2ccccc2NS(=O)(=O)c2ccc(NC(C)=O)cc2)nc1	inconclusive: 39.8 µM [inhibitor, partial curve, poor fit]	
NCCSC1CC(=O)N(c2ccc(Cl)c(Cl)c2)C1=O (stereo not drawn)	inconclusive: 35.5 µM [inhibitor, partial curve, poor fit]	
Cc1ccc(S(=O)(=O)Nc2nc3ccccc3nc2Nc2cccc(C(=O)O)c2)c(C)c1		inactive: -5.09%
O=C(COc1ccccc1)NCC(O)c1ccccc1C(F)(F)F (stereo not drawn)		inactive: 33.7%
COc1ccccc1-n1cc(-c2ccccc2)[nH]c1=S	inconclusive: 44.7 µM [inhibitor, partial curve, poor fit]	

SMILES	Potency	activity change, negative = inhibition
CC(C)C(=O)Nc1cccc(C(=O)Nc2nnc(C(C)(C)C)s2)c1	inconclusive: 89.1 µM [inhibitor, single point]	
COc1cccc2cc(C(=O)Nc3ccc(CC(=O)O)cc3)c(=O)oc12	inconclusive: 100 µM [inhibitor, partial curve, poor fit]	
CC/C(C)=N/Nc1cccc([N+](=O)[O-])c1	active: 1.12 µM	
Clc1cccc(Cc2c(-c3ccccc3)nc3c4ccccc4ccn23)c1		inactive: 2.12%
Nc1nc(SCC(=O)Nc2cccc(S(=O)(=O)N3CCCCCC3)c2)n[nH]1		inactive: 0.262%
Cc1ccc(NC(=O)CSc2nc(-c3ccco3)cc(C(F)(F)F)n2)c(C)c1	inconclusive: 39.8 µM [inhibitor, partial curve, poor fit]	
Cc1cc(C(=O)NCCc2noc(-c3ccccc3)n2)nn1C	inconclusive: 8.91 µM [inhibitor, full curve]	
COc1ccccc1CNc1nc(C)c(C(C)=O)s1	inconclusive: 20 µM [inhibitor, partial curve, poor fit]	
CCOc1ccccc1C1NC(=O)NC(C)=C1C(=O)OC1CCCC1C (stereo not drawn)		inactive: -0.117%
N/C(=N\OC(=O)COc1ccc(Cl)cc1)c1cccnc1	inconclusive: 31.6 µM [inhibitor, single point]	
CC1C(c2cccs2)=[N+]([O-])C(C)(c2ccccc2)N1O (stereo not drawn)		inactive: 10.2%
O=C(Nc1ccc(Cl)cc1)N1Cc2cccn2-c2ccccc21	inconclusive: 1.12 µM [inhibitor, partial curve, poor fit]	
COc1ccc(NC(=O)COC(=O)c2n[nH]c3ccccc23)cc1	inconclusive: 35.5 µM [inhibitor, partial curve, poor fit]	
Cn1c(=O)[nH]c(=O)c2c(C(=O)O)cc(C3CC3)nc21	inconclusive: 31.6 µM [inhibitor, partial curve, poor fit]	
COc1ccc(-c2cc(C(=O)Nc3sc4c(c3C(N)=O)CCCC4)no2)cc1		inconclusive: -31.4% [inhibitor]
CCOC(=O)C1CCN(Cc2ccc(Cl)c(Cl)c2)CC1	inconclusive: 0.251 µM [inhibitor, full curve, poor fit]	
Cc1ccc(C)c(-c2cc3c(=O)n(CCNC(=O)c4ccccc4Cl)ccn3n2)c1	inconclusive: 56.2 µM [inhibitor, partial curve, poor fit]	
Cc1cc2nc(SC(C)C(=O)O)[nH]c2cc1C (stereo not drawn)	inconclusive: 56.2 µM [inhibitor, partial curve, poor fit]	
Cc1ccc([C@H]2N[C@]3(CCCN(Cc4cccn4C)C3=O)[C@H]3C(=O)N(C)C(=O)[C@@H]23)cc1		inconclusive: -34.6% [inhibitor]
COc1ccc(-n2nnnc2C2CCN(S(=O)(=O)c3ccccc3Cl)CC2)cc1	inconclusive: 112 µM [inhibitor, single point]	
COc1cccc(/C=C2/Sc3ccc(C(=O)NC4CC4)cc3NC2=O)c1	inconclusive: 39.8 µM [inhibitor, full curve, poor fit]	
c1coc(-c2nc(-c3ccco3)c(-c3ccco3)nc2-c2ccco2)c1	inconclusive: 2.24 µM [inhibitor, full curve]	

Single values from the entries so far.
Entry for COc1ccc(C(=O)Nc2ccc(-c3nc4ccccc4o3)cc2)cc1OC under Potency: inconclusive: 100 µM [inhibitor, single point]
Entry for C#CCOCCOCCOCCNc1nc(N2CCOCC2)nc(N2CCN(C(=O)CCCCCCCCCCNC(=O)[C@H](CO)n3cc(CCCCCN)nn3)CC2)n1 under Potency: inconclusive: 35.5 µM [inhibitor, single point]
